# Primary screen of a compound library

Amino acid sequences for entries named in this document (tags omitted).
UniProt E9BF75, entry or part of it: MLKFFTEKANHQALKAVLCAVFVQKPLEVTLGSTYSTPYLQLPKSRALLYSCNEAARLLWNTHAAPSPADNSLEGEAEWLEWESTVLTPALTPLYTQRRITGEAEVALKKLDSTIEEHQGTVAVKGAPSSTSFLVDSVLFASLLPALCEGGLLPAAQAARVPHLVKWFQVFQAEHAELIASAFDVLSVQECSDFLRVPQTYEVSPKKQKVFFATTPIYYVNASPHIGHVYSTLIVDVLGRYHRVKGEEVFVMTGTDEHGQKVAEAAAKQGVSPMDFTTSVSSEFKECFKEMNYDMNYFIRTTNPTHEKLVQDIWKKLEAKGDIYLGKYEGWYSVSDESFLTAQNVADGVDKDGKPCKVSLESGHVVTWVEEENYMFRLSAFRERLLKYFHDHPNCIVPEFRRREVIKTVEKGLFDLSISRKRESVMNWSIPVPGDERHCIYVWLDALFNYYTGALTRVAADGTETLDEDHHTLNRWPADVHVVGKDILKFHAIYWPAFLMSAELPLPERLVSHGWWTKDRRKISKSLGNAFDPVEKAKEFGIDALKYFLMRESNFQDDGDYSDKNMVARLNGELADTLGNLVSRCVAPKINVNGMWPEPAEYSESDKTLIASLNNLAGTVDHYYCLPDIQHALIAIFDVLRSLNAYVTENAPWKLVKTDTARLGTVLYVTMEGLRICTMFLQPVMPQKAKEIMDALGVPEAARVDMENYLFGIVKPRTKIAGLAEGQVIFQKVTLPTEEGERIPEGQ

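Primary screen of methionyl-tRNA synthetase; the read-out is not stated. Target: Methionyl-tRNA synthetase (putative), Leishmania donovani (UniProt E9BF75). The test concentration is not given. The values are filed as inhibition. Size under these conditions: about 68,000 compounds, about 24 of them at 50% or above in at least one test.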

Results are percentages, as filed. The controls that fix the scale are not given in the record; negative values are as filed. The compounds are a random part of those screened.

| # | SMILES | Inhibition |
|---|---|---|
| 1 | `CN(C)C(=O)COC[C@]12COC[C@H]1CN(CC1CCC1)C2` | 10.04% |
| 2 | `CCOCCN1CCN(CC(=O)NC2(C#N)CCCC2)CC1C` (centres undefined) | -2.419% |
| 3 | `O=C(CCN1CCN(c2ccc3nncn3n2)CC1)NC1CCCC1` | -4.7% |
| 4 | `Nc1cc(C(=O)NC2CCCN(CCCc3ccccc3)C2)ccn1` (centres undefined) | 1.69% |
| 5 | `COCC(C)NC(=O)N(C)Cc1cc(C)on1` (centres undefined) | 5.455% |
| 6 | `O=c1[nH]c(N2CCOCC2)nc2c1CN(Cc1cccnc1)CC2` | 13.02% |
| 7 | `Cc1cnc(CNCc2cnc(-c3ccccc3C)s2)cn1` | 16.88% |
| 8 | `O=C(CSc1ccc(F)cc1F)NS(=O)(=O)c1ccc2c(c1)OCCO2` | 10.38% |
| 9 | `O=C(NC1CCCC1)c1cc(Sc2ncccn2)ccn1` | -12.13% |
| 10 | `CN(C)Cc1cnc(CC2CCN(CCc3ccccc3)CC2)cn1` | 10.48% |
| 11 | `COCC1CN(Cc2sccc2C)Cc2nnn(CC3CC3)c21` (centres undefined) | 10.75% |
| 12 | `Cc1nccn1-c1ccc(N2CCC(NC(C)C(C)C)CC2)cc1` (centres undefined) | 11.73% |
| 13 | `CN(C)S(=O)(=O)N1CCCCCC1c1cc(-c2ccc(F)cc2)no1` (centres undefined) | 4.651% |
| 14 | `Cc1cc(C2CCCCN2C(=O)c2cccn2C)nc2nccn12` (centres undefined) | 3.226% |
| 15 | `CCN(Cc1ccc2cccc(O)c2n1)CC1CCCO1` (centres undefined) | 3.97% |
| 16 | `COc1cc(NCC(c2ccccn2)N2CCOCC2)ncn1` (centres undefined) | 19.35% |
| 17 | `CCn1cc(NC(=O)N2CCN(CCSc3ccccc3)CC2)cn1` | 12.11% |
| 18 | `Cc1ccc(C(=O)N2CCC3(CCCCC3)C2)c(=O)[nH]1` | 16.77% |
| 19 | `CC1CCN(Cc2cnc(S(=O)(=O)CC3CC3)n2CC2CCCO2)CC1` (centres undefined) | 4.425% |
| 20 | `CCN(CC)C(=O)[C@@H]1C[C@@H](n2cc(-c3ccccn3)nn2)CN1` | 5.16% |
| 21 | `CC(C)N1CC2(CCC1=O)CCN(c1ccnc3ccccc13)CC2` | 21.77% |
| 22 | `CC(C)C1CN(c2ncccn2)CCC(=O)N1Cc1ccc(F)cc1` (centres undefined) | 18.58% |
| 23 | `CN(C)C(=O)CN1CCC2(CCN(CC3CC3)CC2)C1=O` | 3.361% |
| 24 | `Cc1ccc(NS(=O)(=O)c2cc(C(=O)O)oc2C)c(Br)c1` | 10.86% |
| 25 | `COc1ccc2c(c1)OCC(Cc1ccnc(N)n1)C2` (centres undefined) | 19.1% |
| 26 | `CC(O)CN1CCC(=O)N(Cc2ccccc2)Cc2ccccc21` (centres undefined) | 4.658% |
| 27 | `CS(=O)(=O)CCCNC1(c2ccc(Br)cc2)CCC1` | 13.64% |
| 28 | `CCOCC1CN(Cc2ccc3c(c2)OCO3)Cc2nccn2C1` (centres undefined) | 14.72% |
| 29 | `O=C(COc1ccccc1Cl)N1CCCC(n2ccnc2)C1` (centres undefined) | 13.66% |
| 30 | `COc1ccc(Cc2cccc(C3CCN(C)CC3)n2)cc1` | 8.562% |
| 31 | `O=C(c1ccc(C(F)(F)F)cc1)C1CCCN(C(=O)Cn2cnnn2)C1` (centres undefined) | 4.658% |
| 32 | `CCSCc1ccnc(NC(=O)C2CCCO2)c1` (centres undefined) | 13.77% |
| 33 | `Cc1nc(-c2ccccc2)n(CC(=O)NC(C2CC2)C2CC2)n1` | 14.14% |
| 34 | `Cc1cccc(C(=O)NCCS(=O)(=O)Cc2ccccc2)c1` | 4.178% |
| 35 | `COc1ccccc1N(C)Cc1nc2c(cnn2C)c(=O)[nH]1` | 2.514% |
| 36 | `CC(C)[C@@H](C)NC1CCN(c2ccc(-n3ccnc3)cc2)CC1` | 26.81% |
| 37 | `CCS(=O)(=O)c1ccc(N2CCC(NC(=O)NC(C)CO)CC2)cc1` (centres undefined) | 10.14% |
| 38 | `Cc1cnn(CC2CN(c3cnc4ccccc4n3)CCO2)c1` (centres undefined) | 7.981% |
| 39 | `COc1cc(OC)nc(N2CCC3(CC2)OCCCC3O)n1` (centres undefined) | 12.03% |
| 40 | `Cc1cnn(CC2CCCCN2C(=O)Cc2csc(C)n2)c1` (centres undefined) | 9.722% |
| 41 | `CCC1CN(C(=O)c2cccc(O)c2)CCC(=O)N1Cc1ccccc1` (centres undefined) | 17.02% |
| 42 | `CSCC(=O)N1CCCC(n2ccnc2C(C)C)C1` (centres undefined) | 10.24% |
| 43 | `Cc1ccccc1N1CCCN(C(=O)CCCS(N)(=O)=O)CC1` | 5.419% |
| 44 | `OCCN(Cc1cccnc1)c1ncc(Br)cn1` | 4.485% |
| 45 | `CCCN(C(=O)CCS(=O)(=O)Cc1ccccc1)c1cccc(C)c1` | 11.28% |
| 46 | `O=C(c1c2c(N3CCCC3)ncnc2n2ccccc12)N1CCCC1` | 8.497% |
| 47 | `CCN1CCn2c(C)cnc2C12CCN(C(=O)C(C)C)CC2` | 15.71% |
| 48 | `CCc1ccc(CNC(=O)CCc2nnc(-c3ccc(C)s3)o2)nc1` | 12.03% |
| 49 | `Cc1nc(CN2CCCC2c2c(C)nn(C)c2Cl)oc1C` (centres undefined) | 8% |

Some entries from above, unchanged:

* O=C(NC1CCCC1)c1cc(Sc2ncccn2)ccn1 | -12.13%
* CC(C)C1CN(c2ncccn2)CCC(=O)N1Cc1ccc(F)cc1 (centres undefined) | 18.58%
* CCOCC1CN(Cc2ccc3c(c2)OCO3)Cc2nccn2C1 (centres undefined) | 14.72%
* CCc1ccc(CNC(=O)CCc2nnc(-c3ccc(C)s3)o2)nc1 | 12.03%

Source: ChEMBL document CHEMBL3988442, “University of Dundee, Small-Polar-MMV Screening Library” (2021).